Reference: patent US5192676

System: AscI restriction endonuclease (Arthrobacter sp. NEB 688 (ATCC 55134))
Experiment: enzyme reaction in vitro
Details: 37 C, purified native protein

Sequence	activity on this sequence (cleavage between second and third bases, four-base 5' extension, 30 min, label: 35S dATP)	activity on this sequence (cleaves GG/CGCGCC giving labeled d(AGG), 70 mM Tris-HCl pH 7.6, 10 mM MgCl2, 5 mM DTT, 2 h, label: 5'-32P)
AGGCGCGCCT (double strand)	active	
AGGCGCGCCT (double strand) [AscI 10-mer self-complementary oligonucleotide]		active

Construct, isoform or probe ends are uncertain for at least one entry.
